The supplement of paper PMC10849652
This is one part of the list.

Chains of the proteins cited; added tags and fusions are not shown. Lines headed by an entry give the natural chain unless they say otherwise; changes in a name come on top.
UniProt P17980, whole entry, looked up: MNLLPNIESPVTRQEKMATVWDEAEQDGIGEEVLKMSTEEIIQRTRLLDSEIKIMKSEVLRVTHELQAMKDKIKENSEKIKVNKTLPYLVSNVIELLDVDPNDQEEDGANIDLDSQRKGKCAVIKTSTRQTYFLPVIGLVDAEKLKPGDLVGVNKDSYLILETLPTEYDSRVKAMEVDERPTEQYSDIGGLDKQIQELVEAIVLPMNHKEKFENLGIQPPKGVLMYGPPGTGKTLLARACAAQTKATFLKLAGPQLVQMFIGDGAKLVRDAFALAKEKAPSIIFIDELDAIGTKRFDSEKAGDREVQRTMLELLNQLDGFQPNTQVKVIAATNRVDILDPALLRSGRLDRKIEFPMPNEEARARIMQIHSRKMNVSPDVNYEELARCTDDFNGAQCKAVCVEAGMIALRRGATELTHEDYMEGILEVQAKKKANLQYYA
UniProt Q9UKA9: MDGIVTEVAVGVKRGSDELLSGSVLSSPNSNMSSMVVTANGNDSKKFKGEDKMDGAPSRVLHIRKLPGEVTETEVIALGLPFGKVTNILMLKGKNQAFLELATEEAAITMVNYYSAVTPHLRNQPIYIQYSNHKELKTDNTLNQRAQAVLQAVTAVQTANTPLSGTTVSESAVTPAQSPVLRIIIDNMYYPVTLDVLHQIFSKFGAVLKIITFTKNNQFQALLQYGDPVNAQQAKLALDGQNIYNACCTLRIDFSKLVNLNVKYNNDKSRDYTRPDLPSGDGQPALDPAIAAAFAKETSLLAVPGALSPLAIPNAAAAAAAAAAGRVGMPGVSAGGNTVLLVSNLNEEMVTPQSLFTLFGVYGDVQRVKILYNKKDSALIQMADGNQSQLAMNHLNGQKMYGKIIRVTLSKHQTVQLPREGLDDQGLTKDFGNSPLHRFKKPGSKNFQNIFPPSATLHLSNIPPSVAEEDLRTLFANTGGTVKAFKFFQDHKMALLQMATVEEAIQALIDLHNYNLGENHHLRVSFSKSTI
UniProt Q9P2W1: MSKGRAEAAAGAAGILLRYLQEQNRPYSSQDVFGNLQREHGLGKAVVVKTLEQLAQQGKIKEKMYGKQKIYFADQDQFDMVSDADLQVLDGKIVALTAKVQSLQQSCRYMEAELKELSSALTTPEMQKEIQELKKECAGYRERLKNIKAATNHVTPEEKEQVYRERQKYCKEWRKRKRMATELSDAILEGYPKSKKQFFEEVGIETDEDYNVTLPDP
UniProt Q13308: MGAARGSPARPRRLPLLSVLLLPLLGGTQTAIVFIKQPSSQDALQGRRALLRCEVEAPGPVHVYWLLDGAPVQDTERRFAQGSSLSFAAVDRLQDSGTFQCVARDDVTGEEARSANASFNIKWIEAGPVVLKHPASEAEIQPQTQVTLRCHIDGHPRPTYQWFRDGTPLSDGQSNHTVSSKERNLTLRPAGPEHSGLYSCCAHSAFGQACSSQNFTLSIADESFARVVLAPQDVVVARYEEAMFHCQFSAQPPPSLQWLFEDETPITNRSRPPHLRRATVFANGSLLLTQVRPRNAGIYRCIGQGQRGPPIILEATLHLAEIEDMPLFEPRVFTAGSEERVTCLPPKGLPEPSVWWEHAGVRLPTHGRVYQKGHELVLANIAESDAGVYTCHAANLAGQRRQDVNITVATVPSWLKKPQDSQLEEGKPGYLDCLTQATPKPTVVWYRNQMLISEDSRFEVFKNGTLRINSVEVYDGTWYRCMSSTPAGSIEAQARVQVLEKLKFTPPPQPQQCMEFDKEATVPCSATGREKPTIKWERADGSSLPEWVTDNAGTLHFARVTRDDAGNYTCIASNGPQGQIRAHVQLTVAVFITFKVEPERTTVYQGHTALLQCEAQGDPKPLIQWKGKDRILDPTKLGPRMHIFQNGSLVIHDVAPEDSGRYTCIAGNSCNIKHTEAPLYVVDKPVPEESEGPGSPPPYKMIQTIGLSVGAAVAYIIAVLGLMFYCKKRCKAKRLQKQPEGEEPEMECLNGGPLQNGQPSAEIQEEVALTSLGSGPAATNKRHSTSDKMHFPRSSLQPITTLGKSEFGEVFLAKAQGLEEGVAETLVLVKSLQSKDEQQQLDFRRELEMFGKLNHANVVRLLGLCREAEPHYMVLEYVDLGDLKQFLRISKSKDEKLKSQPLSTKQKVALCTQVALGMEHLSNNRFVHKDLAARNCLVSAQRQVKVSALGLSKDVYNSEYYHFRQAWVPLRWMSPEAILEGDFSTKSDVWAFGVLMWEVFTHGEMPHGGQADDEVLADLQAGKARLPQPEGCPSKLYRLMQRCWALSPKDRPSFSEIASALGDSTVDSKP
UniProt P53801: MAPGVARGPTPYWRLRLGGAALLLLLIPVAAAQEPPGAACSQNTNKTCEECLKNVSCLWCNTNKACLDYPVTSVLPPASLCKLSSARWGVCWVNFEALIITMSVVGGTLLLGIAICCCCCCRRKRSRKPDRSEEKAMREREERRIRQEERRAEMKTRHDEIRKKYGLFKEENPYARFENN
UniProt Q8WXF1: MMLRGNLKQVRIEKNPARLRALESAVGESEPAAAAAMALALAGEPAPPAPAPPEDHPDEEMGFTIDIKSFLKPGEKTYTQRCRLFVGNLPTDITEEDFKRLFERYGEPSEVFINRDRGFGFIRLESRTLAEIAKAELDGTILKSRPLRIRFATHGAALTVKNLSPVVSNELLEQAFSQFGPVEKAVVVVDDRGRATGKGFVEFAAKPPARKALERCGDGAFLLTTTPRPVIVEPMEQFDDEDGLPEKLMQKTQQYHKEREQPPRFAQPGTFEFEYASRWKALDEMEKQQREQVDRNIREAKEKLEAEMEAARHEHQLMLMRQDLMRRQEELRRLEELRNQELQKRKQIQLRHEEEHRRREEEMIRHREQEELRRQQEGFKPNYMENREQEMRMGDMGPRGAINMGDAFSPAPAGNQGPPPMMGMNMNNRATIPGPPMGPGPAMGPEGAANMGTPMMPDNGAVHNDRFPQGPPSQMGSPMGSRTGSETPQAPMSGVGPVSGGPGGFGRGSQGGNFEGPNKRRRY
UniProt Q9BVG9: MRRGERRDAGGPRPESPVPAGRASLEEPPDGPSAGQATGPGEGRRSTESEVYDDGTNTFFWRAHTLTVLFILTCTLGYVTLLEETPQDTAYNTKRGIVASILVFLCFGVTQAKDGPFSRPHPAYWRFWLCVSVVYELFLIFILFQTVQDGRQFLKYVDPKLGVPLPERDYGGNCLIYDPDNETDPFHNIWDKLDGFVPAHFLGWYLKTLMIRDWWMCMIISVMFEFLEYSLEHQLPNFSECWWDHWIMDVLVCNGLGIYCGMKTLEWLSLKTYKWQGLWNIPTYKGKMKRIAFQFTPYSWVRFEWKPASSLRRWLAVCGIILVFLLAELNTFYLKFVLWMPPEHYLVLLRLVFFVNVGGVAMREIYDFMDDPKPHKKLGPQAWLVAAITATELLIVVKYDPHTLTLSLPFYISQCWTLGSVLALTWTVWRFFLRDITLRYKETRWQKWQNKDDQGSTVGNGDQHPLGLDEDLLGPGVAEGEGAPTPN
UniProt Q8N0Z8: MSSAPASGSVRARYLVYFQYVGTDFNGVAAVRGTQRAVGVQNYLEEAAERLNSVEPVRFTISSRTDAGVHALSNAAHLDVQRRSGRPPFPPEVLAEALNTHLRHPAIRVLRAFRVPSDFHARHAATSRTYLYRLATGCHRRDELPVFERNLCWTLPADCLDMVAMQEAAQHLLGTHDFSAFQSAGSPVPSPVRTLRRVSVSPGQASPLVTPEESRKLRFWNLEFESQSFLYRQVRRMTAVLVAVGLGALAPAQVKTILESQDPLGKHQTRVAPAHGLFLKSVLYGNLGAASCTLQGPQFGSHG
UniProt P29350: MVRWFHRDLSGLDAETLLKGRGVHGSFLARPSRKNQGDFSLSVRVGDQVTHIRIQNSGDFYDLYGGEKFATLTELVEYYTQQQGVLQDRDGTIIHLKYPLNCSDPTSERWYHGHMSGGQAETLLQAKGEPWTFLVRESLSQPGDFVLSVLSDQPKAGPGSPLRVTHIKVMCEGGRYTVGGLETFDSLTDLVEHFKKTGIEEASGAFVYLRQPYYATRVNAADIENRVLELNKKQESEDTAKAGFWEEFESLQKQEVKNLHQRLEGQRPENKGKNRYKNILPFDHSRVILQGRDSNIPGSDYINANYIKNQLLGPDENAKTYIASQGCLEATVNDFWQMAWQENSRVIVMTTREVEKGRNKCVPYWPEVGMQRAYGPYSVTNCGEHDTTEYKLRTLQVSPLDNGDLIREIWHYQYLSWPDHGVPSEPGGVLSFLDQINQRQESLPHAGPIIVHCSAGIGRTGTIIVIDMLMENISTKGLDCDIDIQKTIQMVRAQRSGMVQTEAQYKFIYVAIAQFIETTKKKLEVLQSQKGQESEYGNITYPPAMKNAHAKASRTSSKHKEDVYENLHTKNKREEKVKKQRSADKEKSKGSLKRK
UniProt Q9H7Z7: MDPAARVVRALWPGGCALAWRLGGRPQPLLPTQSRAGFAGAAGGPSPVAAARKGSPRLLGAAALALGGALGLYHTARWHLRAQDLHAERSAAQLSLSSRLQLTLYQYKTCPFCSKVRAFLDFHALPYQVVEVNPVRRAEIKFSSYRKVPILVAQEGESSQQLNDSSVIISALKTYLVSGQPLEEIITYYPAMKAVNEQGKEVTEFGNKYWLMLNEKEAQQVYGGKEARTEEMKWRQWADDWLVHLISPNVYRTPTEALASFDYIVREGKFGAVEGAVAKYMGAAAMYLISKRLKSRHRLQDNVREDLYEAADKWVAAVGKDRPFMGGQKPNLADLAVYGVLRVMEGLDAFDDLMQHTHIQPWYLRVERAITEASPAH
UniProt Q96M27: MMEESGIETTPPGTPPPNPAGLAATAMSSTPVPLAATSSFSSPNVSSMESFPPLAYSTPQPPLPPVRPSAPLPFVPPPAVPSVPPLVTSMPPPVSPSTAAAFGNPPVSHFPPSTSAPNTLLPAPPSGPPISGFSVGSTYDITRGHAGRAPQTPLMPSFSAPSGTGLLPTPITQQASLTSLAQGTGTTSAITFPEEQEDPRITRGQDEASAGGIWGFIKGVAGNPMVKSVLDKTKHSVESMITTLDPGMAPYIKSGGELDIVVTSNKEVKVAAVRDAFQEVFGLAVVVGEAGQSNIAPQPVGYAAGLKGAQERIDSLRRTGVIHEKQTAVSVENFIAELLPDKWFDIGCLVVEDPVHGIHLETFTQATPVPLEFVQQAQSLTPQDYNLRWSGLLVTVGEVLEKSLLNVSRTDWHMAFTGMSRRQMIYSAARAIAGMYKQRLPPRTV
UniProt P78330: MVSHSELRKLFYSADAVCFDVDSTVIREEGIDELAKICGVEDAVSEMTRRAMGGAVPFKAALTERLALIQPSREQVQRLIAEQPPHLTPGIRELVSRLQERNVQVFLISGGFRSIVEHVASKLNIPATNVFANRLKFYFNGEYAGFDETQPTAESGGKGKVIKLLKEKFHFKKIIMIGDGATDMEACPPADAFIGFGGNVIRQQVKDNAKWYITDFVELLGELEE
UniProt P17706: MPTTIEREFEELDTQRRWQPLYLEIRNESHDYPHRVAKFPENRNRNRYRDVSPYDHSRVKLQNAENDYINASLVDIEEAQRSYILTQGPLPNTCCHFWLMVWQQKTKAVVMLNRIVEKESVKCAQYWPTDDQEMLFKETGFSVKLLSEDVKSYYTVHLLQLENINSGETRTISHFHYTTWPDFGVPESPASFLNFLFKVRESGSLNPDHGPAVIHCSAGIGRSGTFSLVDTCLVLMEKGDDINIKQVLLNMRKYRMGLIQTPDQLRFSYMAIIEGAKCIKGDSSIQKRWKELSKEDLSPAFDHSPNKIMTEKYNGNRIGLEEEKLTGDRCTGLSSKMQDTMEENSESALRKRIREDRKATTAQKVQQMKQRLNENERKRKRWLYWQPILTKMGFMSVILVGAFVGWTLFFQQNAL
UniProt Q08623: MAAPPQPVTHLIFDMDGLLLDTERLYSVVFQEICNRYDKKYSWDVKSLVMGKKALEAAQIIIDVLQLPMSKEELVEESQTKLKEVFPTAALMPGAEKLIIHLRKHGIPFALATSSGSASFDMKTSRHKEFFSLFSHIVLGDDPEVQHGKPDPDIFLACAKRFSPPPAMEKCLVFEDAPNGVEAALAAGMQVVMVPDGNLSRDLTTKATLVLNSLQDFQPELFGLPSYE
UniProt P26599: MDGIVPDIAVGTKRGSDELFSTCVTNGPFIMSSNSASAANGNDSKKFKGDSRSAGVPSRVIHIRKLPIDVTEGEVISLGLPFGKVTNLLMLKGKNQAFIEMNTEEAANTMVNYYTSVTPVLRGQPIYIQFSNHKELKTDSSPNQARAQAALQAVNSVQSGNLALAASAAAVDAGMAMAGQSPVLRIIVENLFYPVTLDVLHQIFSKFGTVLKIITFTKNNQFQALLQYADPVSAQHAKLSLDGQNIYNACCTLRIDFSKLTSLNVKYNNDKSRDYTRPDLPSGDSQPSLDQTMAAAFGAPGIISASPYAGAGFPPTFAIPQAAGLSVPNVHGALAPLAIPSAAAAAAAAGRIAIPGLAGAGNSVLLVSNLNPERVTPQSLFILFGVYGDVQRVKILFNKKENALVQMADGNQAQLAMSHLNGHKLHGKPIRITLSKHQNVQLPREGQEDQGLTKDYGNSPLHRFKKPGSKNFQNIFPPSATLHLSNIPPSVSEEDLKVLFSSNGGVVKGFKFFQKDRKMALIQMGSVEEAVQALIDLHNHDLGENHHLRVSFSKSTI

Columns and labels:
Assay in all cases: log2 fold change, soluble protein after heating vs DMSO (PISA); higher = thermal stabilisation; K562 lysate, 10 uM; active = over 0.2 and 3.5 SD of the protein, either way, in both replicates (recomputed)
nilotinib = compound: Cc1cn(-c2cc(NC(=O)c3ccc(C)c(Nc4nccc(-c5cccnc5)n4)c3)cc(C(F)(F)F)c2)cn1 [nilotinib]
Summary of the method: (§1)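 Thermal stability, expressed as log-two fold change relative to solvent controls, is given from duplicates. Crude K562 extract in PBS pH 7.4 with 1 mM MgCl2, at 1 mg/mL protein, was treated with 10 μM compound for 30 min and heated in aliquots for 3 min across 48°C-58°C. After pooling, adjustment to 0.5% NP-40 at 4°C and centrifugation at 21,000xg for 90 min, supernatant protein was measured by TMTpro 16plex LC-MS/MS with channel sums equalised.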

[1] = compound: Cc1nc(Nc2n[nH]c3c2CN(C(=O)N[C@H](CN(C)C)c2ccccc2)C3(C)C)c2sccc2n1
Summary of the method: as §1

dasatinib = compound: Cc1nc(Nc2ncc(C(=O)Nc3c(C)cccc3Cl)s2)cc(N2CCN(CCO)CC2)n1 [dasatinib]
Summary of the method: as §1

[2] = compound: Cc1ncc(-c2ccnc(Nc3ccc(S(C)(=O)=O)cc3)n2)n1C(C)C
Summary of the method: as §1

[3] = compound: Cn1cc(-c2ccc3c(c2)CCN3C(=O)Cc2cccc(C(F)(F)F)c2)c2c(N)ncnc21
Summary of the method: as §1

quisinostat = compound: Cn1cc(CNCC2CCN(c3ncc(C(=O)NO)cn3)CC2)c2ccccc21 [quisinostat]
Summary of the method: as §1

tipifarnib = compound: Cn1cncc1[C@@](N)(c1ccc(Cl)cc1)c1ccc2c(c1)c(-c1cccc(Cl)c1)cc(=O)n2C [tipifarnib]
Summary of the method: as §1

[4] = compound: NC(=O)Nc1cc(-c2cccc(F)c2)sc1C(=O)N[C@H]1CCCNC1
Summary of the method: as §1

[5] = compound: NC(=O)c1cnc(N[C@@H]2CCCC[C@@H]2N)nc1Nc1cccc(-n2nccn2)c1
Summary of the method: as §1

[6] = compound: NC1(c2ccc(-c3nc4ccn5c(=O)[nH]nc5c4cc3-c3ccccc3)cc2)CCC1
Summary of the method: as §1

[7] = compound: NCC(=O)Nc1ccc(-n2nc(C(F)(F)F)cc2-c2ccc3c(ccc4ccccc43)c2)cc1
Summary of the method: as §1

vorinostat = compound: O=C(CCCCCCC(=O)Nc1ccccc1)NO [vorinostat]
Summary of the method: as §1

silmitasertib = compound: O=C(O)c1ccc2c(c1)nc(Nc1cccc(Cl)c1)c1ccncc12 [silmitasertib]
Summary of the method: as §1

[8] = compound: O=C1NC(=O)C(c2cnc3ccccn23)=C1c1cn2c3c(cc(F)cc13)CN(C(=O)N1CCCCC1)CC2
Summary of the method: as §1

entospletinib = compound: c1cn2cc(-c3ccc4cn[nH]c4c3)nc(Nc3ccc(N4CCOCC4)cc3)c2n1 [entospletinib]
Summary of the method: as §1

| Target | log2 fold change (nilotinib) | log2 fold change [1] | log2 fold change (dasatinib) | log2 fold change [2] | log2 fold change [3] | log2 fold change (quisinostat) | log2 fold change (tipifarnib) | log2 fold change [4] | log2 fold change [5] | log2 fold change [6] | log2 fold change [7] | log2 fold change (vorinostat) | log2 fold change (silmitasertib) | log2 fold change [8] | log2 fold change (entospletinib) |
| --- | --- | --- | --- | --- | --- | --- | --- | --- | --- | --- | --- | --- | --- | --- | --- |
| PSMC3 (UniProt P17980) | inactive: -0.004 | inactive: 0 | inactive: 0.003 | inactive: -0.052 | inactive: 0.007 | inactive: 0.029 | inactive: -0.008 | inactive: 0.012 | inactive: 0.001 | inactive: 0.002 | inactive: 0.033 | inactive: -0.036 | inactive: 0.007 | inactive: 0.005 | inactive: -0.023 |
| PRPF8 (UniProt Q6P2Q9) | inactive: -0.007 | inactive: -0.009 | inactive: -0.002 | inactive: -0.021 | inactive: 0.012 | inactive: -0.004 | inactive: 0.003 | inactive: 0.026 | inactive: -0.006 | inactive: -0.002 | inactive: -0.013 | inactive: -0.032 | inactive: 0.044 | inactive: 0.013 | inactive: -0.004 |
| PTBP2 isoform 2 (UniProt Q9UKA9) | inactive: 0.013 | inactive: -0.223 | inactive: 0.157 | inactive: -0.007 | inactive: 0.121 | inactive: 0.038 | inactive: 0 | inactive: -0.042 | inactive: -0.071 | inactive: 0 | inactive: -0.022 | inactive: -0.009 | inactive: -0.024 | inactive: 0.006 | inactive: -0.09 |
| PRRC2C isoform 7 (UniProt Q9Y520) | inactive: -0.054 | inactive: 0.014 | inactive: -0.008 | inactive: 0.017 | inactive: -0.02 | inactive: -0.011 | inactive: -0.021 | inactive: 0.017 | inactive: -0.005 | inactive: 0.002 | inactive: 0.035 | inactive: 0.046 | inactive: -0.035 | inactive: -0.012 | inactive: -0.013 |
| PSMD5 (UniProt Q16401) | inactive: -0.006 | inactive: -0.027 | inactive: -0.027 | inactive: -0.026 | inactive: 0.03 | inactive: 0.007 | inactive: -0.005 | inactive: -0.005 | inactive: 0.012 | inactive: -0.017 | inactive: 0.012 | inactive: 0.042 | inactive: -0.004 | inactive: -0.005 | inactive: -0.009 |
| PSMC3IP (UniProt Q9P2W1) | inactive: 0.019 | inactive: 0.038 | inactive: -0.008 | inactive: 0 | inactive: 0.05 | inactive: -0.018 | inactive: 0.056 | inactive: 0.027 | inactive: 0.003 | inactive: 0.02 | inactive: 0.004 | inactive: -0.042 | inactive: -0.012 | inactive: -0.012 | inactive: -0.009 |
| PTK7 isoform 6 (UniProt Q13308) | inactive: -0.006 | inactive: -0.003 | inactive: 0 | inactive: 0.087 | inactive: 0.007 | inactive: 0.023 | inactive: 0.012 | inactive: 0.034 | inactive: 0.034 | inactive: -0.035 | inactive: 0.125 | inactive: 0.107 | inactive: -0.032 | inactive: -0.014 | inactive: -0.016 |
| PSMA6 (UniProt P60900) | inactive: 0.035 | inactive: -0.018 | inactive: 0.031 | inactive: -0.008 | inactive: -0.034 | inactive: -0.011 | inactive: -0.001 | inactive: -0.016 | inactive: -0.029 | inactive: -0.01 | inactive: 0.001 | inactive: 0.127 | inactive: -0.013 | inactive: 0.01 | inactive: 0.024 |
| PTTG1IP (UniProt P53801) | inactive: -0.242 | inactive: -0.03 | inactive: -0.085 | inactive: -0.202 | inactive: 0.176 | inactive: -0.18 | inactive: -0.034 | inactive: 0.067 | inactive: 0.039 | inactive: 0.086 | inactive: 0.073 | inactive: -0.014 | inactive: 0.015 | inactive: -0.031 | inactive: -0.203 |
| PSMA4 (UniProt P25789) | inactive: 0.01 | inactive: 0.009 | inactive: -0.003 | inactive: 0.016 | inactive: 0.011 | inactive: -0.024 | inactive: 0.003 | inactive: -0.004 | inactive: -0.004 | inactive: -0.006 | inactive: 0.014 | inactive: 0.089 | inactive: -0.011 | inactive: -0.008 | inactive: 0.012 |
| PSPC1 (UniProt Q8WXF1) | inactive: -0.004 | inactive: -0.009 | inactive: 0.066 | inactive: 0.01 | inactive: -0.007 | inactive: 0.035 | inactive: 0.011 | inactive: 0.012 | inactive: -0.002 | inactive: 0.01 | inactive: -0.013 | inactive: -0.074 | inactive: -0.003 | inactive: -0.01 | inactive: 0.01 |
| PTDSS2 (UniProt Q9BVG9) | inactive: -0.003 | inactive: 0.012 | inactive: -0.072 | inactive: -0.019 | inactive: 0.011 | inactive: 0.007 | inactive: -0.146 | inactive: 0.042 | inactive: -0.011 | inactive: -0.001 | inactive: -0.033 | inactive: 0.101 | inactive: 0.015 | inactive: -0.037 | inactive: 0.002 |
| PUSL1 (UniProt Q8N0Z8) | inactive: -0.007 | inactive: -0.168 | inactive: -0.046 | inactive: 0.025 | inactive: -0.16 | inactive: -0.081 | inactive: 0.081 | inactive: 0.054 | inactive: -0.005 | inactive: -0.134 | inactive: 0.064 | inactive: -0.003 | inactive: -0.004 | inactive: 0.063 | inactive: 0.065 |
| PTPN6 isoform 4 (UniProt P29350) | inactive: -0.002 | inactive: -0.028 | inactive: 0.028 | inactive: -0.043 | inactive: 0.071 | inactive: 0.01 | inactive: 0.055 | inactive: -0.03 | inactive: -0.128 | inactive: 0.062 | inactive: -0.001 | inactive: -0.039 | inactive: 0.078 | inactive: 0.006 | inactive: 0.107 |
| PTGES2 (UniProt Q9H7Z7) | inactive: 0.446 | inactive: -0.044 | inactive: 0.01 | inactive: -0.019 | inactive: 0.015 | inactive: -0.046 | inactive: -0.057 | inactive: -0.012 | inactive: -0.056 | inactive: -0.078 | inactive: -0.175 | inactive: -0.197 | inactive: 0.304 | inactive: 0.12 | inactive: 0.085 |
| PRRC1 (UniProt Q96M27) | inactive: 0.02 | inactive: 0.019 | inactive: -0.013 | inactive: -0.016 | inactive: -0.043 | inactive: 0.035 | inactive: -0.023 | inactive: -0.023 | inactive: -0.008 | inactive: -0.016 | inactive: 0.018 | inactive: 0.142 | inactive: 0.001 | inactive: -0.003 | inactive: -0.025 |
| PSPH (UniProt P78330) | inactive: -0.023 | inactive: -0.01 | inactive: 0.022 | inactive: -0.008 | inactive: -0.012 | inactive: -0.01 | inactive: -0.013 | inactive: -0.01 | inactive: 0.01 | inactive: 0.008 | inactive: 0.019 | inactive: 0.131 | inactive: -0.001 | inactive: 0.027 | inactive: 0.029 |
| PTPN2 (UniProt P17706) | inactive: 0 | inactive: 0.026 | inactive: -0.026 | inactive: -0.041 | inactive: 0.014 | inactive: -0.067 | inactive: -0.001 | inactive: 0.025 | inactive: 0.006 | inactive: -0.005 | inactive: -0.005 | active: -0.298 | inactive: 0.024 | inactive: -0.002 | inactive: 0.07 |
| PUDP isoform 4 (UniProt Q08623) | inactive: 0.017 | inactive: -0.01 | inactive: 0.009 | inactive: 0.036 | inactive: -0.007 | inactive: -0.014 | inactive: -0.005 | inactive: -0.012 | inactive: 0.02 | inactive: -0.006 | inactive: -0.003 | inactive: 0.148 | inactive: -0.037 | inactive: 0.013 | inactive: -0.029 |
| PTBP1 (UniProt P26599) | inactive: 0.08 | inactive: -0.026 | inactive: -0.053 | inactive: 0.032 | inactive: -0.04 | inactive: -0.025 | inactive: 0.03 | inactive: 0.001 | inactive: -0.044 | inactive: 0.026 | inactive: 0.029 | inactive: -0.167 | inactive: -0.005 | inactive: 0.006 | inactive: 0.026 |

Part of the list above, as comma-separated lines:
Target,log2 fold change (nilotinib),log2 fold change [1],log2 fold change (dasatinib),log2 fold change [2],log2 fold change [3],log2 fold change (quisinostat),log2 fold change (tipifarnib),log2 fold change [4],log2 fold change [5],log2 fold change [6],log2 fold change [7],log2 fold change (vorinostat),log2 fold change (silmitasertib),log2 fold change [8],log2 fold change (entospletinib)
PRRC2C isoform 7 (UniProt Q9Y520),inactive: -0.054,inactive: 0.014,inactive: -0.008,inactive: 0.017,inactive: -0.02,inactive: -0.011,inactive: -0.021,inactive: 0.017,inactive: -0.005,inactive: 0.002,inactive: 0.035,inactive: 0.046,inactive: -0.035,inactive: -0.012,inactive: -0.013
PSMD5 (UniProt Q16401),inactive: -0.006,inactive: -0.027,inactive: -0.027,inactive: -0.026,inactive: 0.03,inactive: 0.007,inactive: -0.005,inactive: -0.005,inactive: 0.012,inactive: -0.017,inactive: 0.012,inactive: 0.042,inactive: -0.004,inactive: -0.005,inactive: -0.009
PSMC3IP (UniProt Q9P2W1),inactive: 0.019,inactive: 0.038,inactive: -0.008,inactive: 0,inactive: 0.05,inactive: -0.018,inactive: 0.056,inactive: 0.027,inactive: 0.003,inactive: 0.02,inactive: 0.004,inactive: -0.042,inactive: -0.012,inactive: -0.012,inactive: -0.009
PTK7 isoform 6 (UniProt Q13308),inactive: -0.006,inactive: -0.003,inactive: 0,inactive: 0.087,inactive: 0.007,inactive: 0.023,inactive: 0.012,inactive: 0.034,inactive: 0.034,inactive: -0.035,inactive: 0.125,inactive: 0.107,inactive: -0.032,inactive: -0.014,inactive: -0.016
PSMA6 (UniProt P60900),inactive: 0.035,inactive: -0.018,inactive: 0.031,inactive: -0.008,inactive: -0.034,inactive: -0.011,inactive: -0.001,inactive: -0.016,inactive: -0.029,inactive: -0.01,inactive: 0.001,inactive: 0.127,inactive: -0.013,inactive: 0.01,inactive: 0.024
